Data as given in PubChem BioAssay AID1224830 (NIAID, 2016)
Aim: 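Host factors that control LPS-induced TNF expression in human macrophages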 (primary screen). Cells: human THP-1 monocytic leukaemia cells, TNF dual-luciferase reporter clone, PMA-differentiated to macrophage-like cells. Reagent: siRNA pool against human genes, 50 nM. Timing: LPS for 4 h, given about 3 days after siRNA transfection. Treatment: bacterial LPS (TLR4 ligand), 10 ng/ml. Read-out: 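TNF firefly reporter luminescence divided by renilla, normalised to the plate median, then turned into a robust z-score for each replicate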. Scale: TNF reporter robust z-score: higher = stronger TNF reporter response to LPS. Rule for the call: 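Each well counts as active if its z-score is over 2.8 or under -1.5; controls are left without a call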.
The whole screen tested about 18,000 reagents; below is a part drawn at random. In the full data, about 2,900 (16%) were called active. 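Calls are made per well; low scores hint the gene aids the LPS response, high scores that it dampens it.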 Repeated entries: four replicate wells of each siRNA pool.

TNF reporter robust z-score	call	gene	PubChem SID
0.48	inactive	TMEM140	SID315457560
1.01	inactive	TMEM140	SID315457560
1.37	inactive	TMEM140	SID315457560
0.81	inactive	TMEM140	SID315457560
-1.25	inactive	S100A7A	SID315463977
-0.86	inactive	S100A7A	SID315463977
-0.95	inactive	S100A7A	SID315463977
-1.44	inactive	S100A7A	SID315463977
0.26	inactive	TAS2R31	SID315463582
1.38	inactive	TAS2R31	SID315463582
-0.56	inactive	TAS2R31	SID315463582
1.16	inactive	TAS2R31	SID315463582
1.04	inactive	RECQL5	SID315453256
0.83	inactive	RECQL5	SID315453256
2	inactive	RECQL5	SID315453256
1.75	inactive	RECQL5	SID315453256
0.82	inactive	TP53BP1	SID315451943
0.07	inactive	TP53BP1	SID315451943
-0.98	inactive	TP53BP1	SID315451943
1.33	inactive	TP53BP1	SID315451943
-1.28	inactive	KNTC1	SID315453522
0.16	inactive	KNTC1	SID315453522
0.62	inactive	KNTC1	SID315453522
0.88	inactive	KNTC1	SID315453522
-0.42	inactive	AKAP5	SID315453329
-0.35	inactive	AKAP5	SID315453329
-0.3	inactive	AKAP5	SID315453329
0.56	inactive	AKAP5	SID315453329
-0.61	inactive	PRDM2	SID315452308
0.7	inactive	PRDM2	SID315452308
0.36	inactive	PRDM2	SID315452308
-0.13	inactive	PRDM2	SID315452308
-1.09	inactive	C4orf50	SID315464545
-0.35	inactive	C4orf50	SID315464545
-1.33	inactive	C4orf50	SID315464545
0.45	inactive	C4orf50	SID315464545
-1.16	inactive	PSMA3	SID315450885
-1.06	inactive	PSMA3	SID315450885
-1.56	active	PSMA3	SID315450885
-0.87	inactive	PSMA3	SID315450885
1.16	inactive	POLR3K	SID315456868
-0.25	inactive	POLR3K	SID315456868
0.77	inactive	POLR3K	SID315456868
-0.08	inactive	POLR3K	SID315456868
1.79	inactive	ZNF596	SID315462880
-0.54	inactive	ZNF596	SID315462880
-0.9	inactive	ZNF596	SID315462880
-0.77	inactive	ZNF596	SID315462880
-0.78	inactive	CLASRP	SID315454621
-0.54	inactive	CLASRP	SID315454621
2.07	inactive	CLASRP	SID315454621
1.65	inactive	PURA	SID315450982
2.89	active	PURA	SID315450982
2.54	inactive	PURA	SID315450982
2.63	inactive	PURA	SID315450982
-0.8	inactive	SEMA5B	SID315457002
-0.51	inactive	SEMA5B	SID315457002
-0.74	inactive	SEMA5B	SID315457002
0.31	inactive	SEMA5B	SID315457002
-0.58	inactive	FAXDC2	SID315454388
-0.28	inactive	FAXDC2	SID315454388
-0.27	inactive	FAXDC2	SID315454388
0.09	inactive	FAXDC2	SID315454388
-0.39	inactive	TMEM184C	SID315457825
5.89	active	TMEM184C	SID315457825
-0.74	inactive	TMEM184C	SID315457825
0.3	inactive	TMEM184C	SID315457825
-1.18	inactive	NPAP1	SID315455416
-1.71	active	NPAP1	SID315455416
-1.25	inactive	NPAP1	SID315455416
-1.37	inactive	NPAP1	SID315455416
-0.79	inactive	TSPAN5	SID315453816
-0.34	inactive	TSPAN5	SID315453816
-1.39	inactive	TSPAN5	SID315453816
-0.49	inactive	TSPAN5	SID315453816
-0.89	inactive	OR2V2	SID315463868
1.51	inactive	OR2V2	SID315463868
-0.9	inactive	OR2V2	SID315463868
3.28	active	OR2V2	SID315463868
-0.73	inactive	CDC25C	SID315447823
-1.76	active	CDC25C	SID315447823
-1.5	inactive	CDC25C	SID315447823
-1.44	inactive	CDC25C	SID315447823
-0.29	inactive	LOC155060	SID315462607
-0.43	inactive	LOC155060	SID315462607
-0.68	inactive	LOC155060	SID315462607
-0.02	inactive	LOC155060	SID315462607
2.89	active	AGTR2	SID315447246
3.16	active	AGTR2	SID315447246
3.85	active	AGTR2	SID315447246
4.28	active	AGTR2	SID315447246
0.07	inactive	MAT1A	SID315449887
1.35	inactive	MAT1A	SID315449887
-0.26	inactive	MAT1A	SID315449887
1.92	inactive	MAT1A	SID315449887
0.02	inactive	CCSER1	SID315464773
-0.16	inactive	CCSER1	SID315464773
-0.05	inactive	CCSER1	SID315464773
0.32	inactive	TAOK2	SID315453214
-0.77	inactive	TAOK2	SID315453214
-1.15	inactive	TAOK2	SID315453214
-0.34	inactive	TAOK2	SID315453214
0.8	inactive	CCT6A	SID315447750
1.46	inactive	CCT6A	SID315447750
0.34	inactive	CCT6A	SID315447750
-0.08	inactive	CCT6A	SID315447750
-1	inactive	PRSS57	SID315464750
-0.4	inactive	PRSS57	SID315464750
-0.46	inactive	PRSS57	SID315464750
0.24	inactive	PRSS57	SID315464750

Active calls (from the list above):
TNF reporter robust z-score	call	gene	PubChem SID
-1.56	active	PSMA3	SID315450885
2.89	active	PURA	SID315450982
5.89	active	TMEM184C	SID315457825
-1.71	active	NPAP1	SID315455416
3.28	active	OR2V2	SID315463868
-1.76	active	CDC25C	SID315447823
2.89	active	AGTR2	SID315447246
3.16	active	AGTR2	SID315447246
3.85	active	AGTR2	SID315447246
4.28	active	AGTR2	SID315447246
